Experimental data: the supplement of paper PMC10849652
The other results are listed elsewhere or left out.

By UniProt entry, the sequences of proteins in these tests, tags left out. Where a name states a change or a piece, a line headed by the entry shows the natural chain unless it says otherwise.
UniProt O95260: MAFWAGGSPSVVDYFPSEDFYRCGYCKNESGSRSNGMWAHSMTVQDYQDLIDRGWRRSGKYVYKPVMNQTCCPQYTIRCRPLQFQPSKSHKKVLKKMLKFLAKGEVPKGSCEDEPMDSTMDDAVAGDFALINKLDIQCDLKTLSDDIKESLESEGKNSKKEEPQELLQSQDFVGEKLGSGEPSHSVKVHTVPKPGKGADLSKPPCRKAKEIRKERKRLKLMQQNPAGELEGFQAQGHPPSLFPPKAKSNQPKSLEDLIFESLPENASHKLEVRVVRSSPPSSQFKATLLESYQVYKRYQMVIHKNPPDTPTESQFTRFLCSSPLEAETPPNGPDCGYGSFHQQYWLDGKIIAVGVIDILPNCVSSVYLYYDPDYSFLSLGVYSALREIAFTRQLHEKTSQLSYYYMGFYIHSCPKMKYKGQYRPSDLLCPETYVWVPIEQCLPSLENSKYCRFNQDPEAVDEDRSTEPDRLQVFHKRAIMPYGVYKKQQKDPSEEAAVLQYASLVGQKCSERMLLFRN
UniProt Q96QE3: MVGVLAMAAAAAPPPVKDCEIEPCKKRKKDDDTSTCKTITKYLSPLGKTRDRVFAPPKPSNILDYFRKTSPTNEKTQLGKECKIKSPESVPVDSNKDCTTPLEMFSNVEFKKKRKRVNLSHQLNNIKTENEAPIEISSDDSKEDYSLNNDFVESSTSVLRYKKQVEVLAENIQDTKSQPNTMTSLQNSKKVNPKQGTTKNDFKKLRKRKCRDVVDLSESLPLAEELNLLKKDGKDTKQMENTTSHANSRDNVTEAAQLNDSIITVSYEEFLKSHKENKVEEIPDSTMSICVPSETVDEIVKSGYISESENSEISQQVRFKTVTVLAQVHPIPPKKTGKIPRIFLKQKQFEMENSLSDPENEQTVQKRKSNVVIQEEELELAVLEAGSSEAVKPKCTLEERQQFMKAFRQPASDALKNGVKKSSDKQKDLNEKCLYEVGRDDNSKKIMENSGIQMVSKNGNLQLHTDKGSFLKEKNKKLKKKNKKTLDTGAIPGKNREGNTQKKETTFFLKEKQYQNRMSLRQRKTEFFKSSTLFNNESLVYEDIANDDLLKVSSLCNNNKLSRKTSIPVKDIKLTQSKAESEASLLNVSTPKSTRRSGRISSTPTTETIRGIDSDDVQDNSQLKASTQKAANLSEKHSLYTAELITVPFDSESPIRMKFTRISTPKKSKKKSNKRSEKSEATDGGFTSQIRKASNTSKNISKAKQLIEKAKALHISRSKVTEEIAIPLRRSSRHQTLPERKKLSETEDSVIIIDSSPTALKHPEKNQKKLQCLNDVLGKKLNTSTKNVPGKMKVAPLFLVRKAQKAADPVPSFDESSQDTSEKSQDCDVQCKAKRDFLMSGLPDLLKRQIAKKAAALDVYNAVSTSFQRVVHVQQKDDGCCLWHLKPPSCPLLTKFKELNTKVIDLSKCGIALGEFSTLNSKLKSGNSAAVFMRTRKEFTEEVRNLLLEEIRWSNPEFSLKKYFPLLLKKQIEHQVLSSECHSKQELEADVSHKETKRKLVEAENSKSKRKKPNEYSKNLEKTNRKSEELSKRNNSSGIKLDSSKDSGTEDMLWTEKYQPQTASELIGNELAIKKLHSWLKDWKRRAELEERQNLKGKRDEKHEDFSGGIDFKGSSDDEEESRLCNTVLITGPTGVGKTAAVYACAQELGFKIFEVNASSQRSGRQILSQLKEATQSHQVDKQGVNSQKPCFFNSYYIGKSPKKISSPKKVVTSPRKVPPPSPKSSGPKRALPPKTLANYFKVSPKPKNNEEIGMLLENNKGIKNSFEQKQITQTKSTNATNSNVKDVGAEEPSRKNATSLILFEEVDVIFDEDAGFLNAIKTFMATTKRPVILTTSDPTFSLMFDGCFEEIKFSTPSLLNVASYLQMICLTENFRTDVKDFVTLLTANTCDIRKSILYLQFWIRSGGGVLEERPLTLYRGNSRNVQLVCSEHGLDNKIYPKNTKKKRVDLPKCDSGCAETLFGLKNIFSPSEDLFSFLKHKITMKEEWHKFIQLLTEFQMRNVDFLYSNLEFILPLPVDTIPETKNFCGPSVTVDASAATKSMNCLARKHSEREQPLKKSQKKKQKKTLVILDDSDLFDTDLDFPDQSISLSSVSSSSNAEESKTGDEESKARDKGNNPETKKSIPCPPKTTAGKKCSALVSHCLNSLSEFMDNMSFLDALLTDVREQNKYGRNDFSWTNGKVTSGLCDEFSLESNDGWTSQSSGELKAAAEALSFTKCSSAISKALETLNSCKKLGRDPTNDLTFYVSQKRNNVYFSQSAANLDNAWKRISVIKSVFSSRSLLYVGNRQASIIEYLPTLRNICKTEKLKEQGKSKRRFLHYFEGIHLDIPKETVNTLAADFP
UniProt Q96DX5: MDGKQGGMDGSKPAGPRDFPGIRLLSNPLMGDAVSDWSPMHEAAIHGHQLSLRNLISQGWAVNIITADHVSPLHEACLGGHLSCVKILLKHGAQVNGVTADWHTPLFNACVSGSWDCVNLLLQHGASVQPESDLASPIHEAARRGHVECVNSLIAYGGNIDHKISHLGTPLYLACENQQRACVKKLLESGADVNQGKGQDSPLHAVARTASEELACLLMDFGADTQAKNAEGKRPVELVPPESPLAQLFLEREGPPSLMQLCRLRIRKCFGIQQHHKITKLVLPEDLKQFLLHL
UniProt Q9NWL6: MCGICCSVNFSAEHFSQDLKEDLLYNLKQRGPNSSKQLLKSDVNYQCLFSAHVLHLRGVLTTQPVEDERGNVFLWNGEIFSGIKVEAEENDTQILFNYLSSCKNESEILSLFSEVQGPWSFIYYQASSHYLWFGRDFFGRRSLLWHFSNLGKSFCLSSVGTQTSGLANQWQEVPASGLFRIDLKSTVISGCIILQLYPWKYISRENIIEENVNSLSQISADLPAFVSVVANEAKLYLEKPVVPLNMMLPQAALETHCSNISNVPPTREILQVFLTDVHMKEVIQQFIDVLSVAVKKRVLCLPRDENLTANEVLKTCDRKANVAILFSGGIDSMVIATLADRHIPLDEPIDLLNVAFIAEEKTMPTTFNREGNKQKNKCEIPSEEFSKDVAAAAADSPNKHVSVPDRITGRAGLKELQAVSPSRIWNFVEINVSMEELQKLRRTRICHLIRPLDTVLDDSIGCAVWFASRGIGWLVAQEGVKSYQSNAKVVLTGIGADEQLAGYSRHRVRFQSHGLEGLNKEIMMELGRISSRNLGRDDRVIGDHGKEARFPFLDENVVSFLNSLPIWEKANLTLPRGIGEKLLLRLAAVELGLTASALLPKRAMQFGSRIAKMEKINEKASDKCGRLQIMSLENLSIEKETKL
UniProt Q99941: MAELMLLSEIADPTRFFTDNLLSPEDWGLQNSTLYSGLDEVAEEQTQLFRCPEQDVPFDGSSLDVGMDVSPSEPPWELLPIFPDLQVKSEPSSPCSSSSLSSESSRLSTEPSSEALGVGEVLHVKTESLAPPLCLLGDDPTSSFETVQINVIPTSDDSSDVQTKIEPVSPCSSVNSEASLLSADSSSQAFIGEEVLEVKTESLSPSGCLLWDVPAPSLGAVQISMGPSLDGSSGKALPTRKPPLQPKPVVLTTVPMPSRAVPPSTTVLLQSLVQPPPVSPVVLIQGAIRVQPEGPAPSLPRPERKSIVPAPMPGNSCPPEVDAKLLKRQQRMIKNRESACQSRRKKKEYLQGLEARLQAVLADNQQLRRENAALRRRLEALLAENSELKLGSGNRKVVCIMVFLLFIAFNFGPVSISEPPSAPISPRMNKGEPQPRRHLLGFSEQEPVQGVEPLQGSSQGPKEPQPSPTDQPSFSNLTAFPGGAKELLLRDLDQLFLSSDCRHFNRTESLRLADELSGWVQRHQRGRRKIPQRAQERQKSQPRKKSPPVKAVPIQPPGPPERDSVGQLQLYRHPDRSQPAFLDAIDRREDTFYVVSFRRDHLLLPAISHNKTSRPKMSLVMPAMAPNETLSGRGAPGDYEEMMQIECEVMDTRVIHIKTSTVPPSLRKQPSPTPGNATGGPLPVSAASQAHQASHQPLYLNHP
UniProt P98194: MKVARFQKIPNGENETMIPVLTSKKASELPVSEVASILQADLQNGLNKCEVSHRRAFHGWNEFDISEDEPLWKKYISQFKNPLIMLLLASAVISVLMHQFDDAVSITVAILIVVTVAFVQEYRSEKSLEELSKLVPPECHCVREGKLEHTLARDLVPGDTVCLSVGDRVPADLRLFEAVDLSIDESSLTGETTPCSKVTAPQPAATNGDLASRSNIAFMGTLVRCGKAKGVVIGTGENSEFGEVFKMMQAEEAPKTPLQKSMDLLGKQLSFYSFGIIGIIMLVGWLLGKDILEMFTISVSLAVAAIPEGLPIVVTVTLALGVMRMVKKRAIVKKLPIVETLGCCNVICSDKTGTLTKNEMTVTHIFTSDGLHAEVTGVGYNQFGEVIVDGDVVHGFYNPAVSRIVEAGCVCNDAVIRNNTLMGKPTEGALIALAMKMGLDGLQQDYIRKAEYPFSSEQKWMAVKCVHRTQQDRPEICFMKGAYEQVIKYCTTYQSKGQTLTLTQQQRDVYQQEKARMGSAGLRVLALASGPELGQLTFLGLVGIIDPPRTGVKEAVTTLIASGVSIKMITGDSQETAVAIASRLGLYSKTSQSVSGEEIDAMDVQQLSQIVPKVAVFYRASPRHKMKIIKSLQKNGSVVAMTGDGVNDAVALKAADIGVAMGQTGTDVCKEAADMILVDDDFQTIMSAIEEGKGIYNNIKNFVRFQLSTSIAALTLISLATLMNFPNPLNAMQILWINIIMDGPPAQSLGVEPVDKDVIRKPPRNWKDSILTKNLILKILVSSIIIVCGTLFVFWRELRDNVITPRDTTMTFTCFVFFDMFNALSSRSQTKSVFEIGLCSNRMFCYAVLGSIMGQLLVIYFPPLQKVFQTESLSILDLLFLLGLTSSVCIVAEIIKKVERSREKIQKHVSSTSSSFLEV
UniProt P0C7T5: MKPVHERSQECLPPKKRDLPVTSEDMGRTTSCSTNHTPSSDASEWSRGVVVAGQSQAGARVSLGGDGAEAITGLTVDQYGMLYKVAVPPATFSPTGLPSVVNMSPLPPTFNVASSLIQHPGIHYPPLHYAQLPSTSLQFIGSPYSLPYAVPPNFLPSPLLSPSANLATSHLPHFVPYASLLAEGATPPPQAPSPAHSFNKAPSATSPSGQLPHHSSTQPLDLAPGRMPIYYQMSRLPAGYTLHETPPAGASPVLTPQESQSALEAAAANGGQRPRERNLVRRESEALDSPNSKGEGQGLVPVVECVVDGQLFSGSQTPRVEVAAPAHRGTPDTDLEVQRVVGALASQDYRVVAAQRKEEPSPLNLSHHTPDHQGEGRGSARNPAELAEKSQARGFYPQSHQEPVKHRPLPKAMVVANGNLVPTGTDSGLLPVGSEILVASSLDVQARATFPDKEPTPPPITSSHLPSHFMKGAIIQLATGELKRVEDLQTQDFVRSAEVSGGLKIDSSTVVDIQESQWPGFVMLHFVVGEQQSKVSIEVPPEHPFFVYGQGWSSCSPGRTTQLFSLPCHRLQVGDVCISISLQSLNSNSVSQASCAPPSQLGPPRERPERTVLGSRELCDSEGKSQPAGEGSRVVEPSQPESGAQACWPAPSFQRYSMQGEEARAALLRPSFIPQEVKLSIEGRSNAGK
UniProt Q53RT3: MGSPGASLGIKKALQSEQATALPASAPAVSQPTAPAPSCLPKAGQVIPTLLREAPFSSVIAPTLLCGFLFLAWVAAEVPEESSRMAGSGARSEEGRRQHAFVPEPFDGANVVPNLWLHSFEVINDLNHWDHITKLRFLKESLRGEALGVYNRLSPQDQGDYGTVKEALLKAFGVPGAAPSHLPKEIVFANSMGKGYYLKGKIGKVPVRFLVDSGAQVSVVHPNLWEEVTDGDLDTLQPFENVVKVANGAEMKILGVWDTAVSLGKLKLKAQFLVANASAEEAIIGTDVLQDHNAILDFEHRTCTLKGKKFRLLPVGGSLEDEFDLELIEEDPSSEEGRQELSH
UniProt Q9Y575: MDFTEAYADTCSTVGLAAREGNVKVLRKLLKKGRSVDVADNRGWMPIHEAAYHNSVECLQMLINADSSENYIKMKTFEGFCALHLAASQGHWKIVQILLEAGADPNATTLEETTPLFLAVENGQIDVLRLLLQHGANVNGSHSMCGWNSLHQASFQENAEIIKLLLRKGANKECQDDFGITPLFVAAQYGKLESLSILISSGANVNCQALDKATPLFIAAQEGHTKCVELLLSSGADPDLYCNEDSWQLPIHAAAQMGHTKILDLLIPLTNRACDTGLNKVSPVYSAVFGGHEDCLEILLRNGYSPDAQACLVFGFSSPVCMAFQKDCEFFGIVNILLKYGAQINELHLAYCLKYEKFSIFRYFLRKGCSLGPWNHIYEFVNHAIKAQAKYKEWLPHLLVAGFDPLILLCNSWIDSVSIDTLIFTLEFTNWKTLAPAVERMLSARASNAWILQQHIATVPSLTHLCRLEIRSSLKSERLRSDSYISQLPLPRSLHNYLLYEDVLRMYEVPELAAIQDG

What was measured:
Assay in all cases: log2 fold change, soluble protein after heating vs DMSO (PISA); higher = thermal stabilisation; K562 lysate, 10 uM; active = over 0.2 and 3.5 SD of the protein, either way, in both replicates (recomputed)
[1] = compound: CC(=O)c1cnc2ccc(-c3cc(Cl)c(O)c(Cl)c3)nc2c1N[C@H]1CC[C@H](CN(C)C)CC1
Summary of the method: (§1)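 To prepare the extract, K562 pellets were dounce-homogenised in PBS pH 7.4 with 1 mM MgCl2, giving crude material at 1 mg/mL protein. This was treated with 10 μM compound for 30 min, then heated in aliquots for 3 min over 48°C-58°C before pooling and addition of NP-40 to 0.5% at 4°C. Centrifugation at 21,000xg for 90 min left soluble protein in the supernatant, which TMTpro 16plex LC-MS/MS quantified with equalised channel sums. Results are log-two fold changes in thermal stability compared with solvent controls, from duplicates.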

[2] = compound: CC1=C(C2=C(C=C1)C(=O)C3=CC=CC=C3N2CCCN)C
Summary of the method: as §1

[3] = compound: CC1=C(C=C(C=C1)NC(=O)C2=CC(=CC=C2)C(C)(C)C#N)NC3=CC4=C(C=C3)N=CN(C4=O)C
Summary of the method: as §1

[4] = compound: CC1=CC=C(C=C1)SC2=C3C=C(SC3=CN=C2)C(=O)N
Summary of the method: as §1

erlotinib = compound: C#Cc1cccc(Nc2ncnc3cc(OCCOC)c(OCCOC)cc23)c1 [erlotinib]
Summary of the method: as §1

[5] = compound: C1=CC(=CC=C1C2=NC3=C(N2)C=C(C=C3)C(=O)N)OC4=CC=C(C=C4)Cl
Summary of the method: as §1

[6] = compound: C1=CC2=NC=CN=C2C=C1/C=C/3\C(=O)NC(=O)S3
Summary of the method: as §1

[7] = compound: C1=CC=C(C=C1)C2=NC(=C(N2)C3=CC=NC=C3)C4=CC(=C(C=C4)Cl)O
Summary of the method: as §1

[8] = compound: C1CCN(C1)C(=O)NC2=CC=CC(=C2)NC3=NC=C(C(=N3)NCCC4=CN=CN4)Br
Summary of the method: as §1

[9] = compound: C1CN(CCC1(CC2=CC=C(C=C2)Cl)N)C3=NC=NC4=C3C=CN4
Summary of the method: as §1

IRAK-1-4 Inhibitor I = compound: C1COCCN1CCN2C3=CC=CC=C3N=C2NC(=O)C4=CC(=CC=C4)[N+](=O)[O-] [IRAK-1-4 Inhibitor I]
Summary of the method: as §1

ibrutinib = compound: C=CC(=O)N1CCC[C@@H](n2nc(-c3ccc(Oc4ccccc4)cc3)c3c(N)ncnc32)C1 [ibrutinib]
Summary of the method: as §1

ralimetinib = compound: CC(C)(C)Cn1c(N)nc2ccc(-c3[nH]c(C(C)(C)C)nc3-c3ccc(F)cc3)nc21 [ralimetinib]
Summary of the method: as §1

[10] = compound: CC(C)(O)CC(=O)NCCn1ccc2ncnc(Nc3ccc(Oc4cccc(C(F)(F)F)c4)c(Cl)c3)c21
Summary of the method: as §1

[11] = compound: CC(C)C1=C2N=C(C=C(N2N=C1)NCC3=CC=CC=C3)NCCCCCCN
Summary of the method: as §1

[12] = compound: CC1=C(C(CC(=O)N1)C2=CC=C(C=C2)C(F)(F)F)C(=O)NC3=C(C=C4C(=C3)C=NN4)F
Summary of the method: as §1

[13] = compound: CC1=C(C=C(C=C1)NC(=O)C2=CC(=CC=C2)N(C)C)NC(=O)C3=CC=C(C=C3)O
Summary of the method: as §1

[14] = compound: C/C(=N\NC(=O)C1=CC(=CC=C1)S(=O)(=O)N2CCOCC2)/C3=C(C=CC(=C3)Cl)O
Summary of the method: as §1

[15] = compound: C1=CC2=C(C=CC(=C2)/C=C\3/C(=O)NC(=NCC4=CC=CS4)S3)N=C1
Summary of the method: as §1

[16] = compound: C1=CC=C2C(=C1)C3=NNC4=CC=CC(=C43)C2=O
Summary of the method: as §1

Measured: log2 fold change

ASB16 (UniProt Q96NS5)
inactive: [1] -0.487 | [2] -0.097 | [3] 0.282 | [4] -0.16

ASS1 (UniProt P00966)
inactive: erlotinib -0.013 | [5] -0.086 | [6] -0.003 | [7] 0.001 | [8] 0.032 | [9] 0.02 | IRAK-1-4 Inhibitor I 0.001 | ibrutinib 0.031 | [1] 0.052 | ralimetinib 0.007 | [10] 0.022 | [11] 0.005 | [12] 0.014 | [2] 0.013 | [3] -0.048 | [13] -0.01 | [4] -0.002

ATE1 (UniProt O95260)
inactive: [6] 0.005 | ibrutinib 0.081 | [1] -0.025 | [3] -0.101 | [4] -0.022

ATAD5 (UniProt Q96QE3)
inactive: erlotinib -0.071 | [5] -0.012 | [8] 0.028 | [9] -0.062 | [11] 0.106 | [12] -0.016

B3GNTL1 (UniProt Q67FW5)
inactive: [6] -0.097 | [7] -0.098 | [8] 0.197 | [9] 0.115 | IRAK-1-4 Inhibitor I 0.125 | ibrutinib 0.109 | [1] -0.126 | ralimetinib -0.118 | [10] -0.093 | [3] -0.034 | [13] 0.002 | [4] 0.023

B3GALT6 (UniProt Q96L58)
inactive: erlotinib 0.074 | [5] -0.04 | [6] 0.022 | [7] -0.028 | IRAK-1-4 Inhibitor I -0.049 | ibrutinib -0.025 | ralimetinib 0.065 | [10] 0.23 | [11] -0.025 | [2] -0.112 | [3] -0.168 | [13] -0.046

ATXN7L2 (UniProt Q5T6C5)
inactive: [14] 0.035 | [15] -0.271 | [16] -0.044

ATG2A (UniProt Q2TAZ0)
inactive: erlotinib 0.169 | [5] 0.087 | [6] -0.097 | [7] -0.01 | IRAK-1-4 Inhibitor I 0.097 | ibrutinib -0.106 | [1] -0.303 | ralimetinib -0.051 | [10] -0.092 | [11] -0.365 | [12] 0.137 | [13] 0.08 | [4] 0.128

B3GALNT2 (UniProt Q8NCR0)
inactive: [7] -0.08 | IRAK-1-4 Inhibitor I -0.056 | [1] 0.092 | ralimetinib 0.005 | [10] -0.154 | [12] 0.086 | [2] 0.071 | [3] -0.101 | [13] 0.001 | [4] -0.117

ATF6 (UniProt P18850)
inactive: erlotinib -0.102 | [5] -0.102 | [7] -0.251 | [8] 0.115 | [9] 0.307 | IRAK-1-4 Inhibitor I 0.007 | ralimetinib 0.04 | [10] -0.267 | [11] 0.3 | [13] 0.073

ASXL2 (UniProt Q76L83)
inactive: erlotinib 0.081 | [5] 0.036 | [6] -0.153 | [7] -0.007 | IRAK-1-4 Inhibitor I -0.062 | ibrutinib -0.002 | [1] -0.045 | ralimetinib 0.115 | [10] 0.034 | [11] -0.042 | [2] 0.04 | [3] 0.13 | [13] 0.002 | [4] 0

ATP5F1B (UniProt H0YI37)
inactive: erlotinib 0.44 | [5] 0.43 | [6] -0.17 | [7] 0.015 | IRAK-1-4 Inhibitor I 0.24 | ibrutinib -0.178 | [1] -0.088 | ralimetinib -0.548 | [10] -0.358 | [11] -0.058 | [12] -0.134 | [2] -0.343 | [3] 0.973 | [13] -0.327 | [4] -0.054

ATG4D (UniProt Q86TL0)
inactive: [6] 0.072 | [7] 0.049 | [8] 0.047 | [9] -0.074 | IRAK-1-4 Inhibitor I -0.142 | ibrutinib -0.086 | ralimetinib 0.049 | [10] 0.074 | [2] 0.319 | [3] -0.096 | [13] -0.052

ATXN2 (UniProt F8WB06)
inactive: [2] 0.187

ASB9 (UniProt Q96DX5)
inactive: erlotinib 0.296 | [5] -0.344 | [1] -0.049 | [11] -0.19 | [4] 0.001

ASXL3 (UniProt Q9C0F0)
inactive: erlotinib -0.057 | [5] -0.068 | [7] 0.044 | IRAK-1-4 Inhibitor I -0.079 | [1] -0.055 | ralimetinib 0.206 | [10] 0.132 | [11] -0.006 | [3] -0.013 | [13] 0.09 | [4] 0.049

ASNSD1 (UniProt Q9NWL6)
inactive: erlotinib 0.053 | [5] -0.028 | [6] -0.004 | [8] 0.024 | [9] 0.025 | ibrutinib -0.023 | [11] -0.056 | [12] -0.01

ATAD2B (UniProt Q9ULI0)
inactive: [6] -0.455 | [7] 0.015 | IRAK-1-4 Inhibitor I -0.142 | ibrutinib -0.027 | ralimetinib -0.044 | [10] -0.28 | [13] -0.024

ATPSCKMT (UniProt Q6P4H8)
inactive: [6] 0 | [7] 0.075 | [8] -0.074 | [9] -0.006 | IRAK-1-4 Inhibitor I -0.046 | ibrutinib -0.042 | ralimetinib -0.15 | [10] 0.088 | [2] 0.019 | [3] -0.015 | [13] -0.001

ATP5F1A (UniProt K7ENJ4)
inactive: erlotinib 0.161 | [5] 0.029 | [7] 0.145 | IRAK-1-4 Inhibitor I 0.044 | [1] 0.059 | ralimetinib 0.057 | [10] 0.159 | [11] 0.07 | [12] -0.341 | [13] -0.081 | [4] -0.199

Copied from the entries so far (two entries):
ATXN7L2 (UniProt Q5T6C5)
inactive: [14] 0.035 | [15] -0.271 | [16] -0.044

ATG2A (UniProt Q2TAZ0)
inactive: erlotinib 0.169 | [5] 0.087 | [6] -0.097 | [7] -0.01 | IRAK-1-4 Inhibitor I 0.097 | ibrutinib -0.106 | [1] -0.303 | ralimetinib -0.051 | [10] -0.092 | [11] -0.365 | [12] 0.137 | [13] 0.08 | [4] 0.128

(cont.)

ATF6B (UniProt Q99941)
inactive: [3] 0.222

ATP2C1 isoform 3 (UniProt P98194)
inactive: erlotinib 0.035 | [5] -0.129 | [7] 0.076 | IRAK-1-4 Inhibitor I 0.121 | ralimetinib 0.074 | [10] 0.064 | [11] 0 | [13] 0.055

ATP5F1B (UniProt F8W079)
inactive: [6] -0.048 | [8] 0.003 | [9] -0.076 | ibrutinib 0.176 | [1] 0.014 | [12] 0.312 | [4] 0.035

ASTE1 (UniProt Q2TB18)
inactive: [1] 0.025 | [3] 0.033 | [4] -0.159

ATP1B4 (UniProt Q9UN42)
inactive: [7] -0.038 | IRAK-1-4 Inhibitor I -0.101 | [1] -0.041 | ralimetinib 0.042 | [10] 0.139 | [2] 0.006 | [3] -0.03 | [13] 0.03 | [4] -0.097

ATP1B1 (UniProt P05026)
inactive: erlotinib -0.01 | [5] 0.057 | [6] -0.019 | [7] -0.014 | IRAK-1-4 Inhibitor I 0.088 | ibrutinib 0.025 | [1] 0.086 | ralimetinib 0.034 | [10] -0.037 | [11] -0.043 | [12] 0.124 | [2] 0.001 | [3] -0.006 | [13] -0.005 | [4] -0.006

ATXN1L (UniProt P0C7T5)
inactive: [14] 0.101 | [15] -0.016 | [6] 0.02 | [7] 0.001 | [16] -0.038 | [8] 0.03 | [9] -0.143 | IRAK-1-4 Inhibitor I 0.017 | ibrutinib 0.031 | ralimetinib 0.018 | [10] -0.044 | [12] -0.109 | [3] -0.025 | [13] -0.015

ASPRV1 (UniProt Q53RT3)
inactive: erlotinib -0.014 | [5] -0.139 | [11] 0.286

ASB3 isoform 3 (UniProt Q9Y575)
inactive: [14] 0.293 | [15] -0.059 | [6] 0.243 | [16] -0.119 | [8] 0.12 | [9] 0.054 | ibrutinib -0.132 | [12] -0.082
